Laboratory results published in article PMC3118390, “PKC isoforms interact with and phosphorylate DNMT1” (BMC Biology, 2011).
Results are given in words; binding and its absence hold for the method and conditions named. In cells and extracts the contact can be indirect. Some binding calls cover weakened binding; strength is not graded here.

By UniProt entry, the sequences of proteins in these tests, tags left out.
UniProt P26358: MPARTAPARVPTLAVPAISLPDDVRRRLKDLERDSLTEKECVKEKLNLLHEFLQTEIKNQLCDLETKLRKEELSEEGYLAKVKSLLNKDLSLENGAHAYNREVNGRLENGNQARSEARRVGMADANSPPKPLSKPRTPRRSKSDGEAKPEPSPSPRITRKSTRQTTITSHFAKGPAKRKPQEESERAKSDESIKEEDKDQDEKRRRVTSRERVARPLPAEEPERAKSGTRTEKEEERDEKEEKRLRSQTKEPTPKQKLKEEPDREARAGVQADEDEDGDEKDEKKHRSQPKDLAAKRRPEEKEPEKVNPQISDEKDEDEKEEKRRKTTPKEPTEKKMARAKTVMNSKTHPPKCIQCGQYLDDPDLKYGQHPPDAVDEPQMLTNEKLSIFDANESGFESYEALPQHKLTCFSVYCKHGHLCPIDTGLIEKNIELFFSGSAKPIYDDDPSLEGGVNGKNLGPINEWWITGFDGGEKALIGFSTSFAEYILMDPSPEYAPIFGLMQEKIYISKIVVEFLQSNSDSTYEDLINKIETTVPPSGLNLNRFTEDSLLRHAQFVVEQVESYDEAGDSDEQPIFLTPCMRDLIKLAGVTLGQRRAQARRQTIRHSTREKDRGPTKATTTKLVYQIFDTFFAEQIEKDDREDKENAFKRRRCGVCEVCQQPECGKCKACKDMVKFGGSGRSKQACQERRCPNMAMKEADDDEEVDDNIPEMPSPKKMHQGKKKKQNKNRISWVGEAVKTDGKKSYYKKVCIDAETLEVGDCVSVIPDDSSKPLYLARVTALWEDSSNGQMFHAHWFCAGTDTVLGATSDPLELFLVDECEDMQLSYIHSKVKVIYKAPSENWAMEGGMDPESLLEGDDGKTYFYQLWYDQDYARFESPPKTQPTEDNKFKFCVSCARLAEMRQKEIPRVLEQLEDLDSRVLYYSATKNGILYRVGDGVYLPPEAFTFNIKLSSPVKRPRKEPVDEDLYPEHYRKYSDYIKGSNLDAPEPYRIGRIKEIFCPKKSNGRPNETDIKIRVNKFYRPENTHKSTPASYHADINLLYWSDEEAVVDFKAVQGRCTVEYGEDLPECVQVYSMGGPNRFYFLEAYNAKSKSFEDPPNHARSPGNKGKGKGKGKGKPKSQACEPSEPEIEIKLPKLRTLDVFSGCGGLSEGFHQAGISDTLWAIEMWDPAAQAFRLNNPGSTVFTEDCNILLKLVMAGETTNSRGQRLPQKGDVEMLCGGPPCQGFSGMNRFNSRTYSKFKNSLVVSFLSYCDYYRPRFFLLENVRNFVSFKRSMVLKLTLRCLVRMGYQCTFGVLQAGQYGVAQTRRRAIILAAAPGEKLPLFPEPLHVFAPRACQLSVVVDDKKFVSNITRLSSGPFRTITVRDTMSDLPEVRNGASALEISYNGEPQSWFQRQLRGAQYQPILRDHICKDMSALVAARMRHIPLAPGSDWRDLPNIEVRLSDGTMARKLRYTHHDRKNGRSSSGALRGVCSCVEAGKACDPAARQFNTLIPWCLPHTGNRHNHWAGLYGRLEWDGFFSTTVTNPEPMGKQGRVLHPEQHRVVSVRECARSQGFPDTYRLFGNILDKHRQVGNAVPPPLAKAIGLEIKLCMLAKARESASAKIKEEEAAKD

Target: endogenous DNMT1 (human (endogenous in HEK-293)) (UniProt P26358)
Assay: co-IP; HEK-293 nuclear proteins; anti-DNMT1 prebound to protein G beads, four hours at 4°C; PKCζ detected in the immunoprecipitate by kinase activity with (γ-32P)ATP and a PKCζ specific substrate

B1: endogenous PKCζ (enzyme, UniProt Q05513 1-592)
chain: MPSRTGPKMEGSGGRVRLKAHYGGDIFITSVDAATTFEELCEEVRDMCRLHQQHPLTLKWVDSEGDPCTVSSQMELEEAFRLARQCRDEGLIIHVFPSTPEQPGLPCPGEDKSIYRRGARRWRKLYRANGHLFQAKRFNRRAYCGQCSERIWGLARQGYRCINCKLLVHKRCHGLVPLTCRKHMDSVMPSQEPPVDDKNEDADLPSEETDGIAYISSSRKHDSIKDDSEDLKPVIDGMDGIKISQGLGLQDFDLIRVIGRGSYAKVLLVRLKKNDQIYAMKVVKKELVHDDEDIDWVQTEKHVFEQASSNPFLVGLHSCFQTTSRLFLVIEYVNGGDLMFHMQRQRKLPEEHARFYAAEICIALNFLHERGIIYRDLKLDNVLLDADGHIKLTDYGMCKEGLGPGDTTSTFCGTPNYIAPEILRGEEYGFSVDWWALGVLMFEMMAGRSPFDIITDNPDMNTEDYLFQVILEKPIRIPRFLSVKASHVLKGFLNKDPKERLGCRPQTGFSDIKSHAFFRSIDWDLLEKKQALPPFQPQITDDYGLDNFDTQFTSEPVQLTPDDEDAIKRIDQSEFEGFEYINPLLLSTEESV
With B1 the binding was “binds”.
